To fix the notation:
T1: Tankyrase 1 binding protein 1 (TNKS1BP1, Tab182), endogenous (human (endogenous in Ad5E1HEK293, Ad12E1HER2, HeLa, HEK293FT)), Q9C0C2
T1 chain: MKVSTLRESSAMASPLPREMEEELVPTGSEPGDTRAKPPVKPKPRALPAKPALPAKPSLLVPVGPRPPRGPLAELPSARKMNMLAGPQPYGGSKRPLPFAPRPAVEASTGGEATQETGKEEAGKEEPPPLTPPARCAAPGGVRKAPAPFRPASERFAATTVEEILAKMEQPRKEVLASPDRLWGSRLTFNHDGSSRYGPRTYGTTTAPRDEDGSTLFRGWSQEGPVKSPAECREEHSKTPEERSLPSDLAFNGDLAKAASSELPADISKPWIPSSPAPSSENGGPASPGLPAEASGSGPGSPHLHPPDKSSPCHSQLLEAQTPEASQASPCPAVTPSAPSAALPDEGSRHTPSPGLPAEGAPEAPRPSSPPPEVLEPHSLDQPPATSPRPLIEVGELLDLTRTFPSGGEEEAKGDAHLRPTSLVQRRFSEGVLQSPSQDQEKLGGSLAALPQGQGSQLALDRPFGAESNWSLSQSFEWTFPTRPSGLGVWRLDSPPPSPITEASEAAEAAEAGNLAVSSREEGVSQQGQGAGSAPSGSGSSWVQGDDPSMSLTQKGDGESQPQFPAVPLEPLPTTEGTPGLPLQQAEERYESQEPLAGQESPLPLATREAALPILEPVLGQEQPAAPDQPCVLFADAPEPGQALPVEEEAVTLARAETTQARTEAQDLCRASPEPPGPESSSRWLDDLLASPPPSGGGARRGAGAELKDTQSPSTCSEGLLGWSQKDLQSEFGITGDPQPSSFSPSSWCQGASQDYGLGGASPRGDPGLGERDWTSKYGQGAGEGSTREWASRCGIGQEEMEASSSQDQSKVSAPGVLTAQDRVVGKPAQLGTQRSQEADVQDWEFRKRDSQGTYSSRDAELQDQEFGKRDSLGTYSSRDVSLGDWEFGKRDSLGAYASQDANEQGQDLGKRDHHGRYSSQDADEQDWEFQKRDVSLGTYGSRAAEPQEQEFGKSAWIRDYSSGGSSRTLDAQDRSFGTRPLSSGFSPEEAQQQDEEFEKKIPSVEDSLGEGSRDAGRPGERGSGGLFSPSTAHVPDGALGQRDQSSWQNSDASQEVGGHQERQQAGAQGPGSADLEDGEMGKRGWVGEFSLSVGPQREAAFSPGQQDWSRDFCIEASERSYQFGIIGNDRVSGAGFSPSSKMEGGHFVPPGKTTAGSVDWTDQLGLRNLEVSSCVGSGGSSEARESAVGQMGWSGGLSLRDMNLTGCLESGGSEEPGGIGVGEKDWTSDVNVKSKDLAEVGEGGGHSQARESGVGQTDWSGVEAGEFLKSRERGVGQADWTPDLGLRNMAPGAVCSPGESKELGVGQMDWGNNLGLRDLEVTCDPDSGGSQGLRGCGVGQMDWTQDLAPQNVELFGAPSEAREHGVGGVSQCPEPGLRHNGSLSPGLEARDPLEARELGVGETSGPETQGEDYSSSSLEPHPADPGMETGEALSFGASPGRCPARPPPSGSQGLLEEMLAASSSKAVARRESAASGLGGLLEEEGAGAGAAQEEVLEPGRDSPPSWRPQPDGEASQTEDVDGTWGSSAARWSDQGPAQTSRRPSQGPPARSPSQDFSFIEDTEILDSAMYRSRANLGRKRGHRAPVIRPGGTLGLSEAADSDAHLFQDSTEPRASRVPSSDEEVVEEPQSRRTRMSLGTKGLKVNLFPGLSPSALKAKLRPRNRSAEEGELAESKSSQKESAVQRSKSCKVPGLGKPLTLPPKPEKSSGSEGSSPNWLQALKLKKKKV

By UniProt entry, the sequences of proteins in these tests, tags left out.
UniProt Q9H9A5: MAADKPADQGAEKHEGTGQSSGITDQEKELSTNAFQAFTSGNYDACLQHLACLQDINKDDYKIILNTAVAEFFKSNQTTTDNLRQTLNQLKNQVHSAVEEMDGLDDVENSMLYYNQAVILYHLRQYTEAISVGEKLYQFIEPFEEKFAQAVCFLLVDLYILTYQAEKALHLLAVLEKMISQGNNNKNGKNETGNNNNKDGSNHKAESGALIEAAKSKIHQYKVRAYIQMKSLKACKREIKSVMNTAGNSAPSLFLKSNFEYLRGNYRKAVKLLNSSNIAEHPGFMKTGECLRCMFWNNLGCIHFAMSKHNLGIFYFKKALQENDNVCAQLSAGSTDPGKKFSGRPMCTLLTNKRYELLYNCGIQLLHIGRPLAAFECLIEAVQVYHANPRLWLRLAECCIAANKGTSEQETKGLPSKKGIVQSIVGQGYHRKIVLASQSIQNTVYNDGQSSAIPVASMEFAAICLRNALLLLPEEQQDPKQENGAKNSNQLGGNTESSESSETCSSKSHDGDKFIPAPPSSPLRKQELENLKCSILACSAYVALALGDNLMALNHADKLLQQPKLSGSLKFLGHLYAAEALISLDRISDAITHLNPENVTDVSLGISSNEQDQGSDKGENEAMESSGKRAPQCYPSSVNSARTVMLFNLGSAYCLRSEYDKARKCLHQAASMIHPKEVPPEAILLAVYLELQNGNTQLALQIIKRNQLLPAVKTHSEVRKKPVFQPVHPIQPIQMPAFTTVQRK
UniProt O75175: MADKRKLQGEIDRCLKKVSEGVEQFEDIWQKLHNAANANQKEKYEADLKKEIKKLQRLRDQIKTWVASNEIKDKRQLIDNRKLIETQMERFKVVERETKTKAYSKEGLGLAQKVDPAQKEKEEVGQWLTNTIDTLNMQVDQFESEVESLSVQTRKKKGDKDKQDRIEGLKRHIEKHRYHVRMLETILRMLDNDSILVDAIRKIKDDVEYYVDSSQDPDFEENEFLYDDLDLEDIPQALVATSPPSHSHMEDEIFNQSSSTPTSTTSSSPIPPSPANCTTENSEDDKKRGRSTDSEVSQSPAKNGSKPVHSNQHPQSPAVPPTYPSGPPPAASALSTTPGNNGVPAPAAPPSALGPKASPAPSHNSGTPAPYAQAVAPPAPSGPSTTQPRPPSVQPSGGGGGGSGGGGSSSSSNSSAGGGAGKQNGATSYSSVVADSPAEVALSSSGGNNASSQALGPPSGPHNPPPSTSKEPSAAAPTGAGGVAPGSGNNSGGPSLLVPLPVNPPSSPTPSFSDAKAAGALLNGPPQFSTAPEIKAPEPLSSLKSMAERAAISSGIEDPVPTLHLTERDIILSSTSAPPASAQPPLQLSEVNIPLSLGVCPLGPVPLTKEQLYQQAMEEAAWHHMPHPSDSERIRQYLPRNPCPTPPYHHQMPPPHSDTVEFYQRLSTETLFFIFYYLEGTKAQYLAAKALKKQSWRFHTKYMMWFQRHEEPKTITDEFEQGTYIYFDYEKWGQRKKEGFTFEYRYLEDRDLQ
UniProt Q9NZN8: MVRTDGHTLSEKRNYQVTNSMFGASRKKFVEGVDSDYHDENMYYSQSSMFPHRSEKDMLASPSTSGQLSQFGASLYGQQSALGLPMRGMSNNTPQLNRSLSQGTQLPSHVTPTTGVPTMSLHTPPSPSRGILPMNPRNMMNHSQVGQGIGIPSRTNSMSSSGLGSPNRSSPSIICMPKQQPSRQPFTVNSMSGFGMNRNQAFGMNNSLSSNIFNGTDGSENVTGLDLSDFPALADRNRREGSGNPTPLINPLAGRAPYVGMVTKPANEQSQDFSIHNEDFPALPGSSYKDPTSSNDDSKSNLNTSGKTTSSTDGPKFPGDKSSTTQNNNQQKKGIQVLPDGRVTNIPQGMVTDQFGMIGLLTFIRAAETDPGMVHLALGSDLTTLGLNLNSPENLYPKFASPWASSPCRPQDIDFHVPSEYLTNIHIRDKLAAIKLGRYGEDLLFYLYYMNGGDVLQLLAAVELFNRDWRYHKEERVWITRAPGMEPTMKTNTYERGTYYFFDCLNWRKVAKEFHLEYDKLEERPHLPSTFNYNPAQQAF
UniProt A5YKK6: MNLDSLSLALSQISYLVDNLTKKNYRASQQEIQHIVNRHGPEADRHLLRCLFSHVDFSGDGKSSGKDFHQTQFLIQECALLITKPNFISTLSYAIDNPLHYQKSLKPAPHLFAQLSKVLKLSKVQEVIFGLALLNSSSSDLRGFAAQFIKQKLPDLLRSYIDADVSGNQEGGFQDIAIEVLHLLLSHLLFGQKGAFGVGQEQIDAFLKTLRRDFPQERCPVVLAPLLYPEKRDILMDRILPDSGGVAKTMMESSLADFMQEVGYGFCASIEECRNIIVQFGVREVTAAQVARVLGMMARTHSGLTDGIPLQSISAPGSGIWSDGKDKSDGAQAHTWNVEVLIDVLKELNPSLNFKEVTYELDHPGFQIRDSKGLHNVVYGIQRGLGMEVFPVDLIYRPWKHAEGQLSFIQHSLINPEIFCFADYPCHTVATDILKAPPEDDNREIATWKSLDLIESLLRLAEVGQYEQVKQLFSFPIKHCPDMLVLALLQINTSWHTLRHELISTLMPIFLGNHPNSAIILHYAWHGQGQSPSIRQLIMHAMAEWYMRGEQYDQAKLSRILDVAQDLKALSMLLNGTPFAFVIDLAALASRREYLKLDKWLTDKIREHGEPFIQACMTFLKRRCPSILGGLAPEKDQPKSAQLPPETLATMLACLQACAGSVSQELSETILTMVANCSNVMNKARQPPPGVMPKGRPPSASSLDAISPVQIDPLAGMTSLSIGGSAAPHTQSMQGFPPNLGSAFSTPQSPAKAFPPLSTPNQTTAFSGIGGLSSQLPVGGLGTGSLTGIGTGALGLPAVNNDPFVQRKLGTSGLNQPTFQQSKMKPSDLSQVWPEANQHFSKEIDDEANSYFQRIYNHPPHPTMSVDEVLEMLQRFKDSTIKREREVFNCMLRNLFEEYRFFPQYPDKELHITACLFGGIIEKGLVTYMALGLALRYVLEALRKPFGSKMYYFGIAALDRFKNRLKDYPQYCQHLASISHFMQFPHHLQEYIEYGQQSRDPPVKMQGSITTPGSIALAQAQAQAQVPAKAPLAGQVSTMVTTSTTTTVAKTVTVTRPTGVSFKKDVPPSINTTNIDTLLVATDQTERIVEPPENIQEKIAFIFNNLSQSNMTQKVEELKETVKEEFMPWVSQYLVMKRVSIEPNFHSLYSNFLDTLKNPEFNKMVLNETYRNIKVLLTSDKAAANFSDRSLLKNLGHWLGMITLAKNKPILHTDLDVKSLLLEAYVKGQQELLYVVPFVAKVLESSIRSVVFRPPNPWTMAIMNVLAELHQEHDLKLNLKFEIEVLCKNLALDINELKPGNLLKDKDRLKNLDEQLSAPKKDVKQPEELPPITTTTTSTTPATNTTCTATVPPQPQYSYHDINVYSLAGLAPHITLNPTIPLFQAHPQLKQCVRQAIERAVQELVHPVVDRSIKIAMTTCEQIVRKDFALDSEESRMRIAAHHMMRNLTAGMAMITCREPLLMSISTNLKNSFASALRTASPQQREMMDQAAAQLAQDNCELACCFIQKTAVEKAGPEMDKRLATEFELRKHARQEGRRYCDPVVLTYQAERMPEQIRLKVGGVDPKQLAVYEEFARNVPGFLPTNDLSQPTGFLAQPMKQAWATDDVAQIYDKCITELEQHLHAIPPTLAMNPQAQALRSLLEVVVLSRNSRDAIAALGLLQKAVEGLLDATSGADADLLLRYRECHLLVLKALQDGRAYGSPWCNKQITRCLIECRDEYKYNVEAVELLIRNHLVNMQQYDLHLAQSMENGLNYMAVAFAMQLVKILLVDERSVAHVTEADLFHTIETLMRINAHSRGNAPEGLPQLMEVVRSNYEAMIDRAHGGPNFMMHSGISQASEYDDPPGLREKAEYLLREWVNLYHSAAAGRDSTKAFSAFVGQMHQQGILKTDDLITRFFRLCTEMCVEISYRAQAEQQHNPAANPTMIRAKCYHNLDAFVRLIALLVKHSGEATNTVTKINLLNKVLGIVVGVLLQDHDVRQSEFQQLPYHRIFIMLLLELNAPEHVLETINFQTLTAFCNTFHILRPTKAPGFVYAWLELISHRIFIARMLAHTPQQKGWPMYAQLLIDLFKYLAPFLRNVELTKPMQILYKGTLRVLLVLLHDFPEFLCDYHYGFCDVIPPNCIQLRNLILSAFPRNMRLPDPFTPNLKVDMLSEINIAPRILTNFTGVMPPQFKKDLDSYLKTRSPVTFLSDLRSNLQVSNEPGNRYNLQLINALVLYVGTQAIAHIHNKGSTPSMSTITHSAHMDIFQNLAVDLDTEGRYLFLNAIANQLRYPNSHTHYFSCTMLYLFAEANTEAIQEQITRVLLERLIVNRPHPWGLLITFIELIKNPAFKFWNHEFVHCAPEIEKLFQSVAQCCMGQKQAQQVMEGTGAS
UniProt Q92600: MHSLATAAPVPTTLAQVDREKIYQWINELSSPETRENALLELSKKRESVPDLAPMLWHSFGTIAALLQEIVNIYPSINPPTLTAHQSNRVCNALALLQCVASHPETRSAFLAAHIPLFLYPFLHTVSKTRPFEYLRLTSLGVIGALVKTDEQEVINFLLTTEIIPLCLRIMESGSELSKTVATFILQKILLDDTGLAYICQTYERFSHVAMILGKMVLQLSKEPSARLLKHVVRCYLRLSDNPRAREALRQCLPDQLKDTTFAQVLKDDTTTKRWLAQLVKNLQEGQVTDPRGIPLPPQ
UniProt Q9UFF9: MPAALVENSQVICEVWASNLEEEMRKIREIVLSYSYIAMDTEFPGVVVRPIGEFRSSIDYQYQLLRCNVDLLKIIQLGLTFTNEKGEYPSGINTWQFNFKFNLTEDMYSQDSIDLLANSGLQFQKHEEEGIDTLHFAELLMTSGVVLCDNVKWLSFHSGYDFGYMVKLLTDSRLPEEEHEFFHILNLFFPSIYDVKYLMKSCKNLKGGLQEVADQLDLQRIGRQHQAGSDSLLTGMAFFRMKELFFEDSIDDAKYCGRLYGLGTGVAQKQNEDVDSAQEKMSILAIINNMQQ
UniProt Q9UIV1: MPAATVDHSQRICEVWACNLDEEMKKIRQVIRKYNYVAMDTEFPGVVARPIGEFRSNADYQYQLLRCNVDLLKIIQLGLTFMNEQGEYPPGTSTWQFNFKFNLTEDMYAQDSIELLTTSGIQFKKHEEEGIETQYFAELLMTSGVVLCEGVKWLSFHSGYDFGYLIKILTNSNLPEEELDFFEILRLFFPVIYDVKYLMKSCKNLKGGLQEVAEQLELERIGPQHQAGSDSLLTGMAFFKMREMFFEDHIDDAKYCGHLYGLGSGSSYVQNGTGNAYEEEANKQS

B1: CNOT4, O95628 1-575 (protein)
chain: MSRSPDAKEDPVECPLCMEPLEIDDINFFPCTCGYQICRFCWHRIRTDENGLCPACRKPYPEDPAVYKPLSQEELQRIKNEKKQKQNERKQKISENRKHLASVRVVQKNLVFVVGLSQRLADPEVLKRPEYFGKFGKIHKVVINNSTSYAGSQGPSASAYVTYIRSEDALRAIQCVNNVVVDGRTLKASLGTTKYCSYFLKNMQCPKPDCMYLHELGDEAASFTKEEMQAGKHQEYEQKLLQELYKLNPNFLQLSTGSVDKNKNKVTPLQRYDTPIDKPSDSLSIGNGDNSQQISNSDTPSPPPGLSKSNPVIPISSSNHSARSPFEGAVTESQSLFSDNFRHPNPIPSGLPPFPSSPQTSSDWPTAPEPQSLFTSETIPVSSSTDWQAAFGFGSSKQPEDDLGFDPFDVTRKALADLIEKELSVQDQPSLSPTSLQNSSSHTTTAKGPGSGFLHPAAATNANSLNSTFSVLPQRFPQFQQHRAVYNSFSFPGQAARYPWMAFPRNSIMHLNHTANPTSNSNFLDLNLPPQHNTGLGGIPVAGEEEVKVSTMPLSTSSHSLQQGQQPTSLHTTVA
B2: FHL2 (protein, UniProt Q14192 1-279)
chain: MTERFDCHHCNESLFGKKYILREESPYCVVCFETLFANTCEECGKPIGCDCKDLSYKDRHWHEACFHCSQCRNSLVDKPFAAKEDQLLCTDCYSNEYSSKCQECKKTIMPGTRKMEYKGSSWHETCFICHRCQQPIGTKSFIPKDNQNFCVPCYEKQHAMQCVQCKKPITTGGVTYREQPWHKECFVCTACRKQLSGQRFTARDDFAYCLNCFCDLYAKKCAGCTNPISGLGGTKYISFEERQWHNDCFNCKKCSLSLVGRGFLTERDDILCPDCGKDI

Results are given in words; binding and its absence hold for the method and conditions named. In cells and extracts the contact can be indirect. Here binding means that the protein was enriched with, or labelled near, the bait; the list need not be complete. For part of these data: No binding means not detected with the bait.

The first experiment has as its target T1, Tankyrase 1 binding protein 1 …. The experiment can be described thus: affinity purification with mass spectrometry. To be noted: remark: other sources report otherwise.
Consider B1, for which the binding result is given as “no binding”.

The target in a further experiment is Tankyrase 1 binding protein 1 (TNKS1BP1, Tab182), endogenous (human (endogenous in Ad5E1HEK293, Ad12E1HER2, HeLa, HEK293FT)) (UniProt Q9C0C2). The experiment can be described thus: affinity purification with mass spectrometry.
Settings: not given
On to CNOT10 (from UniProt Q9H9A5 1-744), for which the binding entry is on record as “binds”.

Consider CNOT3 (from UniProt O75175 1-753), for which the binding entry is given as “binds”.

For the molecule CNOT2 (from UniProt Q9NZN8 1-540), the binding result is “binds”.

On to CNOT1 (from UniProt A5YKK6 1-2376), for which the binding entry is recorded as “binds”.

For “RCD1 (CNOT9) (from UniProt Q92600 1-299)”, the binding entry was “binds”.

Regarding CNOT8 (from UniProt Q9UFF9 1-292), the binding entry was “binds”.

CNOT7 (from UniProt Q9UIV1 1-285): the binding result was “binds”.

As to B2, the binding result is “binds”.
